The results in this text go back to PubChem BioAssay AID743402 (Broad Institute, 2014).

The structures appear in SMILES notation. Screen size: about 1,200 compounds; about 140 (12%) were called active.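 Rule for the calls: active = fitted curve falls past -35% activity change at a dose under twice the top valid dose, in every replicate test; inconclusive = replicate tests disagree on the call; inactive = the rest, including activity in the opposite direction.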 Most of the strongest results are missing from this list.

The nature of the assay: CFTR-F508del correctors, dose response, FRT cells, YFP quenching, cherry-pick (AID 743402).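 Note: compounds act as correctors raising surface CFTR-F508del before acute activation.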 Particulars: FRT CFTR-F508del YFP iodide quenching, 24 h, channel opened with forskolin and a potentiator; at 26 µM (top of the series) unless noted.
As to `CCC(C(=O)OCC(=O)C1(O)CCC2C3CCC4=CC(=O)CCC4(C)C3C(O)CC21C)C(C)C` (stereo unspecified), the activity change, negative = more quenching (active) was inactive: 23.3%.
As for `COc1ccccc1Cc1c(-c2ccc(Cl)cc2)nc2ccc(Br)cn12`, the figure is inactive: -18.8%; as for `CO[C@@H](CN(C)S(=O)(=O)c1ccc(C)cc1)[C@H](C)CN([C@H](C)CO)S(=O)(=O)c1cccc(Cl)c1`, inactive: -7.14%.
On to `Cc1cc(/C=N/NC(N)=S)c(O)c(/C=N/NC(N)=S)c1`, for which the activity change, negative = more quenching (active) is inactive: -20.2%.
For `O=C(NCCCN1CCCC1=O)c1cc(S(=O)(=O)N2CCOCC2)c(Cl)cc1Cl` the value was inactive: -6.67%; for `COc1ccccc1N(C)S(=O)(=O)c1ccc(C(=O)Nc2nccs2)cc1`, inactive: 12.9%; for `O=C(c1cccc(F)c1)N1CC(=O)N2[C@@H](CO)[C@@H](c3ccc(C#Cc4ccc(F)cc4)cc3)[C@@H]2C1`, inactive: 0%.
For `Cc1ccc(S(=O)(=O)N2CCOCC2)cc1NC(=O)COC(=O)c1ccc(Cl)nc1` the value was inactive: 12.9%.
For `CCOc1ccc(Cl)cc1C1=CC(=O)C[C@H](c2ccc(OC)cc2)C1`, the activity change, negative = more quenching (active) is inactive: 6.88%.
For `COc1ccc(S(=O)(=O)Cc2ccc(C(=O)N3CCN(c4cccc(C)c4)C(C)C3)o2)cc1` (stereo unspecified) the value was inactive: 6.67%; for `COc1ccc(C)cc1NC(=O)C(OC(=O)c1ccc(Cl)c(S(=O)(=O)N(C)c2ccccc2)c1)c1ccccc1` (stereo unspecified), inactive: 16%; for `CCCCCCCCCC(=O)OCC(O)CO` (stereo unspecified), inactive: 3.33%.
As for `COCCSc1ccccc1C(=O)Nc1cc([N+](=O)[O-])ccc1OC`, the figure is inactive: -6.67%; as for `CC(C)CN(CCCNC(=O)CN1C(=O)CSc2ccc(S(=O)(=O)N3CCOCC3)cc21)CC(C)C`, inactive: 6.25%; as for `COC(=O)COc1cccc2c(=O)n(CC(=O)NCc3ccccc3)ccc12`, inactive: -11.9%.
As for `O=C1c2ccccc2C(=O)c2c1cccc2N1CCCC1`, the figure is inactive: 0%; as for `C[C@@H]1CN([C@H](C)CO)S(=O)(=O)c2ccc(-c3ccc(C#N)cc3)cc2O[C@H]1CN(C)Cc1ccccn1`, inactive: -10.7%; as for `O=C1/C(=C\c2ccc(O)cc2)SC(=S)N1Cc1ccccc1`, inactive: -6.67%.
For the molecule `COc1ccccc1NC(=O)C(=O)NCC(c1ccco1)N1CCc2ccccc21` (stereo unspecified), the activity change, negative = more quenching (active) was inactive: 10%.
For `CCN(CC(=O)Nc1c(F)cccc1F)C(=O)C1CC1` the value was inactive: 0%.
For `Cc1cc(O)cc2c1C1CCC3(C)C(=O)CCC3C1C=C2` (stereo unspecified) the value was inactive: 2.68%; for `Cc1cc2oc(C(=O)NCCc3ccc(S(N)(=O)=O)cc3)c(C)c2cc1C`, inactive: 9.79%; for `CN(Cc1cccs1)C(=O)c1cccc(S(=O)(=O)N2CCCCCC2)c1`, inactive: 10%.
For `NS(=O)(=O)c1cc(C2(O)NC(=O)c3ccccc32)ccc1Cl` (stereo unspecified) the value was inactive: 3.33%.
Consider `COc1cc(C(=O)c2cocc2C(=O)c2ccc3c(c2)OCO3)cc(OC)c1OC`, for which the activity change, negative = more quenching (active) is inactive: 6.46%.
For `CCN[C@H]1CN(CCCOC)S(=O)(=O)c2sc(S(N)(=O)=O)cc21` the value was inactive: -9.79%.
